# Literature values as cited in article PMC10052025 (Pharmaceutics, 2023).
# System: OATP1B1 c. 521CC genotype
# Conditions: subjects with OATP1B1 c. 521CC genotype; cited from earlier work
compound,measurement,value
CC(C)c1c(C(=O)Nc2ccccc2)c(-c2ccccc2)c(-c2ccc(F)cc2)n1CC[C@@H](O)C[C@@H](O)CC(=O)O [atorvastatin],"increased AUC, fold of the reference",2.4 fold
